PubChem BioAssay AID504791, Drosophila RNAi Screening Center – 2011
The deposit covers about 23,000 reagents; shown is an unselected part of those with a known target gene and a result. Over the whole deposit, 199 (0.86%) were called active. 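Plate-scaled ratios behind the calls are not deposited; printed light signals are raw; many rows marked increased or decreased are still called inactive.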 A plus sign joins genes that one reagent is predicted to hit.

- Aim: 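Factors in Argonaute-based small RNA production and activity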 (primary screen)
- System: Drosophila S2-derived reporter cells
- Reagents: long dsRNA against Drosophila genes, about 150-250 ng dsRNA per well (siRNA assay); about 80-120 ng (miRNA assay)
- Duration: about 5 days (siRNA assay); about 4 days (miRNA assay)
- Challenge: copper sulfate induction of reporters: 25 µM (siRNA assay); 200 mM stated (miRNA assay), 1-2 days before reading
- Measured: 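Dual luciferase assay: Renilla to firefly signal ratio in each well, scaled to the mean ratio of its plate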
- Scale: siRNA reporter hit score: higher = 3 marks a strong hit with raised ratio; -3 a strong hit with lowered ratio
- Rule for the call: 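First-pass picks had plate-scaled ratios over 1.5 for the siRNA assay, over 1.6 for the miRNA assay, or under 0.6; two distinct dsRNAs had to score alike on retest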

The opening 11 records, ahead of the listing:
| predicted target | dsRNA | siRNA reporter hit score | stable siRNA reporter change | miRNA reporter change | stable assay Renilla, run 1 (luminescence) | stable assay firefly, run 1 (luminescence) | activity call |
| --- | --- | --- | --- | --- | --- | --- | --- |
| Sf3a2 (Splicing factor 3a subunit 2) | DRSC09801 | – | – | – | 11193 | 6.97e5 | inactive |
| MED15 (Mediator complex subunit 15) | DRSC00267 | -3 | – | reporter ratio raised past the hit cutoff | 11477 | 2.48e5 | inactive |
| CG15564 | DRSC15102 | – | – | – | 6855 | 4.13e5 | inactive |
| Tollo | DRSC11305 | – | – | – | 8378 | 4.10e5 | inactive |
| coil (coilin) | DRSC07242 | – | reporter ratio raised past the hit cutoff | – | 14702 | 4.34e5 | active |
| CG7054 | DRSC16185 | – | – | – | 10253 | 3.67e5 | inactive |
| ash1 (absent, small, or homeotic discs 1) | DRSC11325 | – | – | – | 7227 | 3.31e5 | inactive |
| sa (spermatocyte arrest) | DRSC11649 | – | – | – | 5699 | 4.53e5 | inactive |
| Cyp4e3 (Cytochrome P450 4e3) | DRSC03306 | – | – | – | 7423 | 3.53e5 | inactive |
| CG15312 | DRSC18000 | – | – | – | 6366 | 2.92e5 | inactive |
| CG8738 | DRSC07256 | – | – | – | 6171 | 3.42e5 | inactive |

Results, repeating the preview:
| predicted target | dsRNA | siRNA reporter hit score | stable siRNA reporter change | miRNA reporter change | stable assay Renilla, run 1 (luminescence) | stable assay firefly, run 1 (luminescence) | activity call |
| --- | --- | --- | --- | --- | --- | --- | --- |
| Sf3a2 (Splicing factor 3a subunit 2) | DRSC09801 | – | – | – | 11193 | 6.97e5 | inactive |
| MED15 (Mediator complex subunit 15) | DRSC00267 | -3 | – | reporter ratio raised past the hit cutoff | 11477 | 2.48e5 | inactive |
| CG15564 | DRSC15102 | – | – | – | 6855 | 4.13e5 | inactive |
| Tollo | DRSC11305 | – | – | – | 8378 | 4.10e5 | inactive |
| coil (coilin) | DRSC07242 | – | reporter ratio raised past the hit cutoff | – | 14702 | 4.34e5 | active |
| CG7054 | DRSC16185 | – | – | – | 10253 | 3.67e5 | inactive |
| ash1 (absent, small, or homeotic discs 1) | DRSC11325 | – | – | – | 7227 | 3.31e5 | inactive |
| sa (spermatocyte arrest) | DRSC11649 | – | – | – | 5699 | 4.53e5 | inactive |
| Cyp4e3 (Cytochrome P450 4e3) | DRSC03306 | – | – | – | 7423 | 3.53e5 | inactive |
| CG15312 | DRSC18000 | – | – | – | 6366 | 2.92e5 | inactive |
| CG8738 | DRSC07256 | – | – | – | 6171 | 3.42e5 | inactive |
| CG5731 | DRSC02883 | – | – | – | 6104 | 5.14e5 | inactive |
| CG12069 | DRSC14470 | – | – | – | 5360 | 3.73e5 | inactive |
| gpp (grappa) | DRSC12515 | – | reporter ratio raised past the hit cutoff | – | 6955 | 2.54e5 | active |
| gpp (grappa) | DRSC12516 | – | – | – | 6550 | 2.96e5 | inactive |
| CG42540 | DRSC08327 | – | – | – | 5732 | 2.77e5 | inactive |
| CG42540 | DRSC08328 | – | – | – | 6699 | 5.12e5 | inactive |
| CG42540 | DRSC08593 | – | – | – | 4655 | 2.01e5 | inactive |
| CG42540 | DRSC23011 | – | – | – | 2847 | 2.89e5 | inactive |
| CG4456 + Hsp22 | DRSC11187 | – | – | – | 6634 | 4.22e5 | inactive |
| CG4456 + Hsp22 | DRSC11192 | – | – | – | 7497 | 3.88e5 | inactive |
| E(spl)mbeta-HLH (Enhancer of split mbeta, helix-loop-helix) | DRSC16697 | – | – | – | 8353 | 6.09e5 | inactive |
| CG32532 | DRSC19556 | – | – | – | 6166 | 3.82e5 | inactive |
| CG32532 | DRSC19557 | – | – | – | 5632 | 3.53e5 | inactive |
| CG32532 | DRSC19558 | – | – | – | 5588 | 3.47e5 | inactive |
| CG32532 | DRSC21370 | – | – | – | 8715 | 5.16e5 | inactive |
| CG5989 | DRSC10565 | – | – | – | 8135 | 4.62e5 | inactive |
| Acp26Ab (Accessory gland protein 26Ab) | DRSC01856 | – | – | – | 7966 | 5.05e5 | inactive |
| Hip14 (Huntingtin-interacting protein 14) | DRSC10570 | – | – | – | 11317 | 4.97e5 | inactive |
| Noa36 | DRSC16761 | – | – | – | 7590 | 4.57e5 | inactive |
| Rab2 | DRSC05017 | – | – | – | 12704 | 1.49e6 | inactive |
| CG7924 | DRSC10931 | – | – | – | 9293 | 3.28e5 | inactive |
| CheB42c (Chemosensory protein B 42c) | DRSC04972 | – | – | – | 6342 | 3.55e5 | inactive |
| eIF3j (eukaryotic translation initiation factor 3 subunit j) | DRSC06107 | – | – | – | 8114 | 6.46e5 | inactive |
| Srp68 (Signal recognition particle 68) | DRSC10475 | – | – | – | 7982 | 4.20e5 | inactive |
| Mlp84B (Muscle LIM protein at 84B) | DRSC12596 | – | – | – | 7134 | 4.45e5 | inactive |
| Eig71Ec (Ecdysone-induced gene 71Ec) | DRSC11150 | – | – | – | 8438 | 4.94e5 | inactive |
| CG9308 | DRSC04539 | – | – | – | 7739 | 4.58e5 | inactive |
| Os-C | DRSC16778 | – | – | – | 6822 | 4.62e5 | inactive |
| Myb (Myb oncogene-like) | DRSC20260 | – | – | – | 7108 | 3.40e5 | inactive |
| CG8840 | DRSC00713 | – | – | – | 7736 | 4.43e5 | inactive |
| Rpt3 (Regulatory particle triple-A ATPase 3) | DRSC20283 | -3 | – | reporter ratio raised past the hit cutoff | 4783 | 2.66e5 | inactive |
| Cyp318a1 (Cytochrome P450 318a1) | DRSC19784 | – | – | – | 5554 | 2.94e5 | inactive |
| Mad1 (Mitotic arrest-deficient 1) | DRSC07561 | – | – | – | 7343 | 4.78e5 | inactive |
| CG14383 | DRSC14841 | – | – | – | 7422 | 5.61e5 | inactive |
| CG30103 | DRSC06894 | – | – | – | 6359 | 3.23e5 | inactive |
| CG9154 | DRSC03150 | – | – | – | 1.00e5 | 1.31e5 | inactive |
| pths (porthos) | DRSC03171 | – | – | – | 5636 | 3.06e5 | inactive |
| Cyp6a21 (Cytochrome P450 6a21) | DRSC07381 | – | – | – | 5639 | 3.30e5 | inactive |
| Mccc1 (Methylcrotonoyl-CoA carboxylase 1) | DRSC15417 | – | – | – | 8154 | 5.28e5 | inactive |
| Nprl2 (Nitrogen permease regulator-like 2) | DRSC20153 | – | – | – | 8486 | 5.58e5 | inactive |
| CG31875 | DRSC21975 | – | – | – | 9205 | 6.35e5 | inactive |
| CG33514 | DRSC08471 | – | – | – | 4622 | 3.94e5 | inactive |
| CG33514 | DRSC08472 | – | – | – | 5358 | 4.55e5 | inactive |
| CG33514 | DRSC21670 | – | – | – | 9076 | 4.68e5 | inactive |
| synr (sayonara) | DRSC02369 | – | – | – | 8707 | 6.28e5 | inactive |
| Pgam5-2 (Phosphoglycerate mutase 5-2) | DRSC04278 | – | – | – | 7112 | 4.87e5 | inactive |
| CG13875 | DRSC08345 | – | – | – | 6284 | 3.67e5 | inactive |
| COX6AL2 (Cytochrome c oxidase subunit 6A-like 2) | DRSC10082 | – | – | – | 6512 | 4.08e5 | inactive |
| CSN6 (COP9 signalosome subunit 6) | DRSC16593 | – | – | – | 4167 | 3.28e5 | inactive |
| CG15543 | DRSC15081 | – | – | – | 6240 | 3.96e5 | inactive |
| Xxylt (Xyloside xylosyltransferase) | DRSC04107 | – | – | – | 10560 | 1.80e6 | inactive |
| CG17732 | DRSC10283 | – | – | – | 7099 | 3.95e5 | inactive |
| CG13855 | DRSC14705 | – | – | – | 8078 | 3.86e5 | inactive |
| CG13855 | DRSC26677 | – | – | reporter ratio raised past the hit cutoff | – | – | inactive |
| sut4 (sugar transporter 4) | DRSC07703 | – | – | – | 8047 | 4.09e5 | inactive |
| CG30121 (retired record) | DRSC21481 | – | – | – | 7749 | 4.56e5 | inactive |
| CG9259 | DRSC03174 | – | – | – | 6787 | 3.63e5 | inactive |
| spd-2 (spindle defective 2) | DRSC09682 | – | – | – | 11218 | 4.52e5 | inactive |
| CG15042 | DRSC19618 | – | – | – | 5487 | 5.13e5 | inactive |
| muskelin | DRSC07273 | – | – | – | 5898 | 3.58e5 | inactive |
| Apl (Apollo) | DRSC10350 | – | – | – | 9485 | 4.70e5 | inactive |
| Smyd4-1 (SET and MYND domain containing, class 4, member 1) | DRSC06785 | – | reporter ratio raised past the hit cutoff | – | 11217 | 3.73e5 | inactive |
| Smyd4-1 (SET and MYND domain containing, class 4, member 1) | DRSC27142 | – | – | reporter ratio raised past the hit cutoff | – | – | inactive |
| CG4455 | DRSC01983 | – | – | – | 2.43e5 | 1.31e6 | inactive |
| CG4455 | DRSC21684 | – | – | – | 8671 | 4.10e5 | inactive |
| CG33332 | DRSC15504 | – | – | – | 7614 | 4.47e5 | inactive |
| CG8750 | DRSC11037 | – | – | – | 6539 | 3.98e5 | inactive |
| Ggt-1 (gamma-glutamyl transpeptidase) | DRSC19993 | – | – | – | 6867 | 3.73e5 | inactive |
| Cdc27 (Cell division cycle 27) | DRSC11112 | – | – | – | 6843 | 3.67e5 | inactive |
| ric8b + ric8a | DRSC18104 | – | – | – | 5004 | 4.60e5 | inactive |
| CG1213 | DRSC12191 | – | – | – | 7190 | 3.96e5 | inactive |
| HP1c (Heterochromatin Protein 1c) | DRSC16166 | – | – | – | 4603 | 3.61e5 | inactive |
| CG16779 | DRSC15153 | – | – | – | 5628 | 3.33e5 | inactive |
| sima (similar) | DRSC17055 | – | reporter ratio raised past the hit cutoff | – | 5647 | 2.14e5 | inactive |
| sima (similar) | DRSC23203 | – | – | – | 2959 | 2.02e5 | inactive |
| Rab35 | DRSC20691 | – | – | – | 5692 | 2.61e5 | inactive |
| CG12231 | DRSC19445 | – | – | – | 5711 | 3.39e5 | inactive |
| alpha-Est4aPsi (pseudo) | DRSC12473 | – | – | – | 4647 | 2.97e5 | inactive |
| w-cup (world cup) | DRSC03048 | – | – | – | 6094 | 3.65e5 | inactive |
| Sulf1 (Sulfated) | DRSC16874 | – | – | – | 11120 | 5.26e5 | inactive |
| Lamtor4 (Late endosomal/lysosomal adaptor, MAPK and MTOR activator 4) | DRSC08436 | – | – | – | 8025 | 4.78e5 | inactive |
| CG13850 | DRSC14700 | – | – | – | 7394 | 3.69e5 | inactive |
| CG13950 | DRSC00368 | – | – | – | 8174 | 3.64e5 | inactive |
| Synd (Syndapin) | DRSC15116 | – | – | – | 8545 | 4.06e5 | inactive |
| CG32603 | DRSC19409 | – | – | – | 5536 | 4.71e5 | inactive |
| CG32603 | DRSC21586 | – | – | – | 8441 | 5.04e5 | inactive |
| RunxB (Runt related B) | DRSC20395 | – | – | – | 3772 | 3.44e5 | inactive |
| RunxB (Runt related B) | DRSC20525 | – | – | – | 6474 | 4.28e5 | inactive |
| RunxB (Runt related B) | DRSC20526 | – | – | reporter ratio raised past the hit cutoff | 5084 | 2.86e5 | inactive |
| RunxB (Runt related B) | DRSC23150 | – | – | – | 4876 | 3.20e5 | inactive |
| Nxt1 (NTF2-related export protein 1) | DRSC04630 | – | – | – | 10767 | 5.35e5 | inactive |
| CHMP2B (Charged multivesicular body protein 2b) | DRSC10436 | – | – | – | 8647 | 3.78e5 | inactive |
| CG34435 | DRSC18086 | – | – | – | 5843 | 3.65e5 | inactive |
| Vml (Vitelline membrane-like) | DRSC17695 | – | – | – | 7571 | 3.14e5 | inactive |
| Vml (Vitelline membrane-like) | DRSC18529 | – | – | – | 7319 | 4.62e5 | inactive |
